Measurements published in PubChem BioAssay AID256 (DTP/NCI, 2004).
The list is a part of this screen's results and no random one: it gathers tests that were run many times, whatever their T/C, doses with no T/C, and many T/C values between a quarter and a half above the control. Other doses and runs of a compound stand elsewhere. T/C: endpoint of the treated group in % of that of the vehicle group. Some doses have a count of surviving animals in place of a T/C: the source holds a T/C of zero for them, seemingly a mark for toxic or unscored doses. Some doses without a T/C left all or most animals alive at the check, yet need not have been tolerated: the source hardly ever lists a survival T/C far under the control, and the zero likely stands for such cases as well. Counts of survivors are from the toxicity check (mostly the fifth day) where no day follows; animals may have died later. Schedule codes are those of the source, read here as Q, the interval in days (D) or hours (H), X, the number of doses. For survival time, this PubChem deposit counts one and a half times the control or more as active, and values a quarter to a half above the control carry no call in these data; other NCI protocols may use other cut-offs.

Test system: CD2F1 mice, L1210 leukemia ip, survival T/C
Assay: NCI In Vivo Anticancer Drug Screen. Data for tumor model L1210 Leukemia (intraperitoneal) in CD2F1 (CDF1) mice
Details: higher T/C = longer survival
Procedure, shortened: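 Implant tumor; dose compound or vehicle; measure endpoint in both groups; report treated divided by control.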

[1] = T/C endpoint: mean survival time, dose: 400.0 mg/kg/injection, schedule: Q01DX009 (ip), vehicle: saline with Tween-80
[2] = T/C endpoint: mean survival time, dose: 100.0 mg/kg/injection, schedule: Q04DX003 (ip), vehicle: saline with Tween-80
[3] = T/C endpoint: mean survival time, dose: 200.0 mg/kg/injection, schedule: Q04DX003 (ip), vehicle: saline with Tween-80
[4] = T/C endpoint: mean survival time, dose: 400.0 mg/kg/injection, schedule: Q04DX003 (ip), vehicle: saline with Tween-80

## O=C(Nc1ccc(C2=NCCN2)cc1)c1ccc(C(=O)Nc2ccc(C3=NCCN3)cc2)cc1
T/C endpoint: mean survival time, dose: 12.0 mg/kg/injection, schedule: Q01DX008 (iv), vehicle: water
  T/C: 144 % of control
T/C endpoint: mean survival time, dose: 18.0 mg/kg/injection, schedule: Q01DX008 (iv), vehicle: water
  T/C: 130 % of control
T/C endpoint: mean survival time, dose: 27.0 mg/kg/injection, schedule: Q01DX008 (iv), vehicle: water
  T/C: 146 % of control
T/C endpoint: mean survival time, dose: 50.0 mg/kg/injection, schedule: Q01DX007 (ip), vehicle: water
  T/C: 138 % of control
T/C endpoint: mean survival time, dose: 50.0 mg/kg/injection, schedule: Q01DX009 (ip), vehicle: water
  T/C: 138 % of control
T/C endpoint: mean survival time, dose: 50.0 mg/kg/injection, schedule: Q03DX003 (ip), vehicle: water
  T/C: 126 % of control
T/C endpoint: mean survival time, dose: 100.0 mg/kg/injection, schedule: Q01DX009 (ip), vehicle: water
  T/C: 148 % of control
T/C endpoint: mean survival time, dose: 100.0 mg/kg/injection, schedule: Q03DX003 (ip), vehicle: water
  T/C: 129 % of control
T/C endpoint: mean survival time, dose: 200.0 mg/kg/injection, schedule: Q03DX003 (ip), vehicle: water
  T/C: 140 % of control
T/C endpoint: mean survival time, dose: 200.0 mg/kg/injection, schedule: Q04DX003 (ip), vehicle: water
  T/C: 137 % of control

## C1CCC2C(C1)NC1CCCCC12 (stereo not drawn)
T/C endpoint: mean survival time, dose: 100.0 mg/kg/injection, schedule: Q01DX009 (ip), vehicle: saline
  survivor count: 0 of 6

## CC#CC(=O)SCCNC(=O)CCNC(C)=O
T/C endpoint: mean survival time, dose: 200.0 mg/kg/injection, schedule: Q04DX003 (ip), vehicle: saline
  survivor count: 0 of 6

## CCCCCCCCC/C(C)=N\NC(=O)c1ccccc1
T/C endpoint: mean survival time, dose: 200.0 mg/kg/injection, schedule: Q01DX009 (ip), vehicle: saline sonified
  survivor count: 3 of 6

## COC(=O)C(=O)O
[1]
  survivor count: 5 of 6

## NNC(=S)NC1CC2C=CC1C2 (stereo not drawn)
[2]
  survivor count: 1 of 3
[3]
  survivor count: 0 of 3
[4]
  survivor count: 0 of 3

## C[N+](C)(C)C1(Cc2ccc(Br)cc2)c2ccccc2-c2ccccc21
[3]
  survivor count: 5 of 6
[4]
  survivor count: 0 of 6

## Nc1c(Cl)c(Cl)nc(C(=O)O)c1Cl
T/C endpoint: mean survival time, dose: 400.0 mg/kg/injection, schedule: Q01DX009 (ip), vehicle: Klucel (hydroxypropylcellulose) (HPC)
  survivor count: 1 of 6

## CC1Oc2cc3c(-c4c(O)cc(O)c5c(O)c6c(cc45)OC(C)C(C)C6=O)c(O)cc(O)c3c(O)c2C(=O)C1C (stereo not drawn)
T/C endpoint: median survival time, dose: 20.0 mg/kg/injection, schedule: Q01DX009 (ip), vehicle: suspension in saline
  survivor count: 3 of 6
T/C endpoint: median survival time, dose: 40.0 mg/kg/injection, schedule: Q01DX009 (ip), vehicle: suspension in saline
  survivor count: 1 of 6
T/C endpoint: median survival time, dose: 80.0 mg/kg/injection, schedule: Q01DX009 (ip), vehicle: suspension in saline
  survivor count: 0 of 6

## Cc1cc2oc(=O)cc(O)c2c(=O)o1
[1]
  survivor count: 3 of 6

## CCC(C)(C[NH-])C[NH-].[Cl][Pt+2][Cl]
T/C endpoint: mean survival time, dose: 12.5 mg/kg/injection, schedule: Q04DX003 (ip), vehicle: saline
  T/C: 147 % of control
T/C endpoint: mean survival time, dose: 25.0 mg/kg/injection, schedule: Q04DX003 (ip), vehicle: saline with Tween-80
  survivor count: 6 of 6
T/C endpoint: mean survival time, dose: 50.0 mg/kg/injection, schedule: Q04DX003 (ip), vehicle: saline with Tween-80
  survivor count: 0 of 6
[2]
  survivor count: 0 of 6
[3]
  survivor count: 0 of 6

## O=C(O)c1nnc(C(=O)O)nn1
T/C endpoint: mean survival time, dose: 200.0 mg/kg/injection, schedule: Q01DX009 (ip), vehicle: water
  survivor count: 1 of 6
T/C endpoint: mean survival time, dose: 400.0 mg/kg/injection, schedule: Q01DX009 (ip), vehicle: water
  survivor count: 0 of 6

## O=C1OCCCC1O (stereo not drawn)
T/C endpoint: mean survival time, dose: 75.0 mg/kg/injection, schedule: Q01DX001 (ip), vehicle: saline
  survivor count: 6 of 6
T/C endpoint: mean survival time, dose: 300.0 mg/kg/injection, schedule: Q01DX001 (ip), vehicle: saline
  survivor count: 3 of 6

## CCOC(=O)C(=C=C(C(=O)OCC)C(=O)OCC)C(=O)OCC
T/C endpoint: mean survival time, dose: 25.0 mg/kg/injection, schedule: Q01DX005 (ip), vehicle: saline with Tween-80
  survivor count: 3 of 3
T/C endpoint: mean survival time, dose: 100.0 mg/kg/injection, schedule: Q01DX005 (ip), vehicle: saline with Tween-80
  survivor count: 3 of 3

## O=c1[nH]cnc2c1ncn2C1CC(CO)C(O)OC1O (stereo not drawn)
T/C endpoint: mean survival time, dose: 400.0 mg/kg/injection, schedule: Q04DX002 (ip), vehicle: saline
  survivor count: 0 of 3

## CCc1c(CNc2ccc(C(=O)NC(CC(=O)O)C(=O)O)cc2)ccc2nc(N)nc(N)c12 (stereo not drawn)
T/C endpoint: mean survival time, dose: 2.0 mg/kg/injection, schedule: Q01DX001 (ip), vehicle: saline
  T/C: 127 % of control
T/C endpoint: mean survival time, dose: 8.0 mg/kg/injection, schedule: Q01DX001 (ip), vehicle: saline
  T/C: 135 % of control
